Measured values published in the supplement of paper PMC8728848.
The other results are listed elsewhere or left out.

How the values were obtained:
Experiment in all cases: glycan array binding signal (z-score within array); higher = stronger binding
Conditions in all cases: glycan notation: IUPAC condensed, linker removed
[1] = target: Neu5Ac(a2-6)GlcNAc(b1-4)GlcNAc
How it was run: (§1)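 The binding signal is a Z-score computed within each array and averaged over linkers. Arrays of the same protein sequence at different concentrations or buffers were also averaged together. Data originate from 3228 arrays in the Consortium for Functional Glycomics database, kept only where the protein sequence was available.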

[2] = target: Neu5Ac(a2-6)GlcNAc(b1-4)GlcNAc(b1-4)GlcNAc
How it was run: as §1

Neu5Ac(a2-8)Neu5Ac = target: Neu5Ac(a2-8)Neu5Ac
How it was run: as §1

[3] = target: Neu5Ac(a2-8)Neu5Ac(a2-3)Gal(b1-3)GalNAc(b1-4)[Neu5Ac(a2-3)]Gal(b1-4)Glc
How it was run: as §1

[4] = target: Neu5Ac(a2-8)Neu5Ac(a2-3)Gal(b1-3)GalNAc(b1-4)[Neu5Ac(a2-8)Neu5Ac(a2-3)]Gal(b1-4)Glc
How it was run: as §1

[5] = target: Neu5Ac(a2-8)Neu5Ac(a2-3)Gal(b1-4)Glc
How it was run: as §1

[6] = target: Neu5Ac(a2-8)Neu5Ac(a2-3)Gal(b1-4)GlcNAc
How it was run: as §1

[7] = target: Neu5Ac(a2-8)Neu5Ac(a2-3)[Gal(b1-3)GalNAc(b1-4)]Gal(b1-4)Glc
How it was run: as §1

[8] = target: Neu5Ac(a2-8)Neu5Ac(a2-3)[GalNAc(b1-4)]Gal(b1-4)Glc
How it was run: as §1

[9] = target: Neu5Ac(a2-8)Neu5Ac(a2-8)Neu5Ac
How it was run: as §1

[10] = target: Neu5Ac(a2-8)Neu5Ac(a2-8)Neu5Ac(a2-3)Gal(b1-4)Glc
How it was run: as §1

[11] = target: Neu5Ac(a2-8)Neu5Ac(a2-8)Neu5Ac(a2-3)[Gal(b1-3)GalNAc(b1-4)]Gal(b1-4)Glc
How it was run: as §1

[12] = target: Neu5Ac(a2-8)Neu5Ac(a2-8)Neu5Ac(a2-3)[GalNAc(b1-4)]Gal(b1-4)Glc
How it was run: as §1

[13] = target: Neu5Ac(a2-8)Neu5Ac(a2-8)Neu5Ac(a2-8)Neu5Ac(a2-3)[GalNAc(b1-4)]Gal(b1-4)Glc
How it was run: as §1

[14] = target: Neu5Ac(a2-8)Neu5Gc(a2-3)Gal(b1-4)GlcNAc
How it was run: as §1

[15] = target: Neu5Ac(b2-6)Gal(b1-4)GlcNAc
How it was run: as §1

Neu5Ac(b2-6)GalNAc = target: Neu5Ac(b2-6)GalNAc
How it was run: as §1

[16] = target: Neu5Ac9Ac(a2-3)Gal(b1-3)GlcNAc
How it was run: as §1

[17] = target: Neu5Ac9Ac(a2-3)Gal(b1-4)GlcNAc
How it was run: as §1

[18] = target: Neu5Ac9Ac(a2-6)Gal(b1-4)GlcNAc
How it was run: as §1

[19] = target: Neu5Gc(a2-3)Gal(b1-3)GlcNAc
How it was run: as §1

[20] = target: Neu5Gc(a2-3)Gal(b1-3)[Fuc(a1-4)]GlcNAc
How it was run: as §1

Neu5Gc(a2-3)Gal(b1-4)Glc = target: Neu5Gc(a2-3)Gal(b1-4)Glc
How it was run: as §1

[21] = target: Neu5Gc(a2-3)Gal(b1-4)GlcNAc
How it was run: as §1

[22] = target: Neu5Gc(a2-3)Gal(b1-4)GlcNAc(b1-3)Gal(b1-4)GlcNAc(b1-2)Man(a1-3)[Neu5Gc(a2-3)Gal(b1-4)GlcNAc(b1-3)Gal(b1-4)GlcNAc(b1-2)Man(a1-6)]Man(b1-4)GlcNAc(b1-4)GlcNAc
How it was run: as §1

[23] = target: Neu5Gc(a2-3)Gal(b1-4)[Fuc(a1-3)]GlcNAc
How it was run: as §1

[24] = target: Neu5Gc(a2-6)Gal(b1-4)GlcNAc
How it was run: as §1

Neu5Gc(a2-6)GalNAc = target: Neu5Gc(a2-6)GalNAc
How it was run: as §1

[25] = target: Neu5Gc(a2-8)Neu5Ac(a2-3)Gal(b1-4)GlcNAc
How it was run: as §1

[26] = target: Neu5Gc(a2-8)Neu5Gc(a2-3)Gal(b1-4)GlcNAc
How it was run: as §1

B1: R2-fiber (Pseudomonas aeruginosa), Q9S576 (protein)
chain: HHHHHHKVAKDLVVSLAYQVRTEDGVLVDESPVSAPLDYLHGHGSLISGLETALEGHEVGDKFDVAVGANDAYGQYDENLVQRVPKDVFMGVDELQVGMRFLAETDQGPVPVEITAVEDDHVVVDGNHMLAGQNLKFNVEVVAIREATEEELAHGHVHGAHDHHHDHDHDGCCGGHGHDHGHEHGGEGCCGGKGNGGCGCHENLYFQGVTAGMALAATDIPGLDASKLVSGVLAEQRLPVFARGLATAVSNSSDPNTATVPLMLTNHANGPVAGRYFYIQSMFYPDQNGNASQIATSYNATSEMYVRVSYAANPSIREWLPWQRCDIGGSFTKEADGELPGGVNLDSMVTSGWWSQSFTAQAASGANYPIVRAGLLHVYAASSNFIYQTYQAYDGESFYFRCRHSNTWFPWRRMWHGGDFNPSDYLLKSGFYWNALPGKPATFPPSAHNHDVGQLTSGILPLARGGVGSNTAAGARSTIGAGVPATASLGASGWWRDNDTGLIRQWGQVTCPADADASITFPIPFPTLCLGGYANQTSAFHPGTDASTGFRGATTTTAVIRNGYFAQAVLSWEAFGR
glycan array binding signal (z-score) [1]: -0.379 | glycan array binding signal (z-score) [2]: -0.658 | glycan array binding signal (z-score) (Neu5Ac(a2-8)Neu5Ac): 0.33 | glycan array binding signal (z-score) [3]: -0.504 | glycan array binding signal (z-score) [4]: -0.61 | glycan array binding signal (z-score) [5]: -0.432 | glycan array binding signal (z-score) [6]: 0.548 | glycan array binding signal (z-score) [7]: -0.829 | glycan array binding signal (z-score) [8]: 0.721 | glycan array binding signal (z-score) [9]: -0.074 | glycan array binding signal (z-score) [10]: -0.462 | glycan array binding signal (z-score) [11]: 0.353 | glycan array binding signal (z-score) [12]: 0.432 | glycan array binding signal (z-score) [13]: 0.115 | glycan array binding signal (z-score) [14]: -0.244 | glycan array binding signal (z-score) [15]: -0.048 | glycan array binding signal (z-score) (Neu5Ac(b2-6)GalNAc): -0.935 | glycan array binding signal (z-score) [16]: -1 | glycan array binding signal (z-score) [17]: -1.16 | glycan array binding signal (z-score) [18]: -0.75 | glycan array binding signal (z-score) [19]: -0.167 | glycan array binding signal (z-score) [20]: -0.038 | glycan array binding signal (z-score) (Neu5Gc(a2-3)Gal(b1-4)Glc): 0.214 | glycan array binding signal (z-score) [21]: -0.701 | glycan array binding signal (z-score) [22]: 0.21 | glycan array binding signal (z-score) [23]: -0.059 | glycan array binding signal (z-score) [24]: -0.324 | glycan array binding signal (z-score) (Neu5Gc(a2-6)GalNAc): -0.199 | glycan array binding signal (z-score) [25]: -0.698 | glycan array binding signal (z-score) [26]: -0.87
